For five molecules, binding results are on record in paper doi:10.1101/2024.09.28.615612.

Protein sequences, listed by entry. Tags and fused reporters are not part of them.
UniProt Q99L90: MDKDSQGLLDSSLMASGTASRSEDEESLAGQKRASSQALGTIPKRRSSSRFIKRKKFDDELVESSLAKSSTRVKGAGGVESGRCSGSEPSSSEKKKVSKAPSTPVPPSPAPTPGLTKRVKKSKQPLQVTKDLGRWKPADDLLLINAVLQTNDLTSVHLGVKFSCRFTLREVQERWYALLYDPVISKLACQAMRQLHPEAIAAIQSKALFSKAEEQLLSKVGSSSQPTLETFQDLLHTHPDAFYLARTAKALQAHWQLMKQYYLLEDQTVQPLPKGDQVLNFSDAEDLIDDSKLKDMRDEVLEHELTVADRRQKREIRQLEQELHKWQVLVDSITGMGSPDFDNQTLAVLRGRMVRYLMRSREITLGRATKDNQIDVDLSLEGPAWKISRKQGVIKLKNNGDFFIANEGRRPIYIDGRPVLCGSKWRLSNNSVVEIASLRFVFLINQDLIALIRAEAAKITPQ

Experiment in all cases: co-IP
Experiment [1] deals with T1, Flag-tagged SIX1 (mouse) (UniProt Q62231).
T1 sequence: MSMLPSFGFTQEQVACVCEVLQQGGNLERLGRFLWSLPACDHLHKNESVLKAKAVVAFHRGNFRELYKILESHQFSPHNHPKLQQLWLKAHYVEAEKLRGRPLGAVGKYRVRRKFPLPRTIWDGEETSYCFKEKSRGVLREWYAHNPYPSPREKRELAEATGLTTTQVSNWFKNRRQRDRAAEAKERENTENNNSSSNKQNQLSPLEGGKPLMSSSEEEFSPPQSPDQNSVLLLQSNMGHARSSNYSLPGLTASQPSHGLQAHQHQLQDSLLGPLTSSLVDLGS

Experiment [2] concerns the target T2, Myc-tagged SOBP (Mus musculus) (UniProt Q0P5V2).
T2 sequence: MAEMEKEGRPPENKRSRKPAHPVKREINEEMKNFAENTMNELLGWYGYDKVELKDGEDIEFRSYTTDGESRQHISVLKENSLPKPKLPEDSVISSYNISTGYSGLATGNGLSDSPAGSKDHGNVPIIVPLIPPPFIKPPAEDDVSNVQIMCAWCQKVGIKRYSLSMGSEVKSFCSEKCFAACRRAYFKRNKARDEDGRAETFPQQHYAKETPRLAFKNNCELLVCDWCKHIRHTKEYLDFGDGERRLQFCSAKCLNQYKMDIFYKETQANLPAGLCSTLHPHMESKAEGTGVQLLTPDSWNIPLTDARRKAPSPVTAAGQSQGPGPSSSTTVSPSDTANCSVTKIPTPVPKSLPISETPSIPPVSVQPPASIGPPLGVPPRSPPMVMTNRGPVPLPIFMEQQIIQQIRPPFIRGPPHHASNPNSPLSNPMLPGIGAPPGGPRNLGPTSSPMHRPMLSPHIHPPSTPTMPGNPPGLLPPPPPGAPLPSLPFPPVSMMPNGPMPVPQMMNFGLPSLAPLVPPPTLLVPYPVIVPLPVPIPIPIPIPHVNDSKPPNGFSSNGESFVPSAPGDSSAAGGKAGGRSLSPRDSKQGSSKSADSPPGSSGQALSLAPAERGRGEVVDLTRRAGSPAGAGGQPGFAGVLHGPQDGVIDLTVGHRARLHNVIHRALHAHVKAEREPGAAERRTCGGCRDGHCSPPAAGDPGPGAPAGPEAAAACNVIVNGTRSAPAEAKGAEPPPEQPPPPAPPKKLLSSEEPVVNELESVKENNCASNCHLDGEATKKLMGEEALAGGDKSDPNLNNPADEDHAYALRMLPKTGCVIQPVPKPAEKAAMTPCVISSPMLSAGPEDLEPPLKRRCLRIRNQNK

Experiment [3] deals with Myc-tagged MCRS1 (Mus musculus) (UniProt Q99L90).
Experiment [4] concerns the target T3, HA-tagged EYA1 (mouse) (UniProt P97767).
T3 sequence: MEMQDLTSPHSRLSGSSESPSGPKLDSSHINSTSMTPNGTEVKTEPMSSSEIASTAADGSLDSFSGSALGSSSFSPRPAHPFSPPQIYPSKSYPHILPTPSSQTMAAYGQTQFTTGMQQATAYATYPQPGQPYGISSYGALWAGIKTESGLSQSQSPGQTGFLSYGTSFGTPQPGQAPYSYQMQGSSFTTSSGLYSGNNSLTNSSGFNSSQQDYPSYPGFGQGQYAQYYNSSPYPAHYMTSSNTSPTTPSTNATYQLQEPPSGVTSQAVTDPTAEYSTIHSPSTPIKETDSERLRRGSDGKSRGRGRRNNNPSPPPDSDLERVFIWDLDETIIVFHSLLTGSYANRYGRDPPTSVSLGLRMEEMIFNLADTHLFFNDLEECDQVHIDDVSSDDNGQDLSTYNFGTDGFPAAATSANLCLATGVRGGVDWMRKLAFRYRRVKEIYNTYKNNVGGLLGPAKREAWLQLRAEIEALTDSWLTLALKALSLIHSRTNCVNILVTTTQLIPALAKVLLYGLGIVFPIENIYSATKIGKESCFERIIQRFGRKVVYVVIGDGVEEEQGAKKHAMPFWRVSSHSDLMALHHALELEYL

The target of experiment [5] is T4, HA-tagged EYA2 (mouse) (UniProt O08575).
T4 sequence: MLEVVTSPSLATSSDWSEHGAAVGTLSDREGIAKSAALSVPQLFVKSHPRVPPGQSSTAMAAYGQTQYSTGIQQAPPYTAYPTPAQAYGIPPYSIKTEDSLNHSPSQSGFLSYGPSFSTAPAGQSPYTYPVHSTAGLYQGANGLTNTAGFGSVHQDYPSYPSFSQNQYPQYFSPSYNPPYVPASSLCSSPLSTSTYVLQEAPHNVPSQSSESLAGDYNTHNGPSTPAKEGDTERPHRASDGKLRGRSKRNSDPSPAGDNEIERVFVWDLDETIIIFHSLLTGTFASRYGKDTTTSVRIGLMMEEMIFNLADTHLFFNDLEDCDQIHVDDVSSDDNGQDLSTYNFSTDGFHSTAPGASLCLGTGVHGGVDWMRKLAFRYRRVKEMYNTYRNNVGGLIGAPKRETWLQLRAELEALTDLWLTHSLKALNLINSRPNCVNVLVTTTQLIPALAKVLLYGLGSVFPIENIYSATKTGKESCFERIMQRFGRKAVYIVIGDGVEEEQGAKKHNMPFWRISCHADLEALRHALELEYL

Experiment [6] addresses T1, Flag-tagged SIX1 (mouse). This is another data set of the same source.

Read-outs that look alike come from different tables or passages of the source. These are yes or no findings as the source states them, for the method shown. Binding seen in cells or lysates may run through a third protein. Some entries that bind do so weakly or less than the wild type. Where a sequence is shown, tags or fusion partners need not be part of it.

As to “Myc-tagged MCRS1 (from UniProt Q99L90 1-462)”, the binding result in experiment [1] was “binds”.

B1: HA-tagged EYA2 (protein, UniProt O08575 1-532)
chain: MLEVVTSPSLATSSDWSEHGAAVGTLSDREGIAKSAALSVPQLFVKSHPRVPPGQSSTAMAAYGQTQYSTGIQQAPPYTAYPTPAQAYGIPPYSIKTEDSLNHSPSQSGFLSYGPSFSTAPAGQSPYTYPVHSTAGLYQGANGLTNTAGFGSVHQDYPSYPSFSQNQYPQYFSPSYNPPYVPASSLCSSPLSTSTYVLQEAPHNVPSQSSESLAGDYNTHNGPSTPAKEGDTERPHRASDGKLRGRSKRNSDPSPAGDNEIERVFVWDLDETIIIFHSLLTGTFASRYGKDTTTSVRIGLMMEEMIFNLADTHLFFNDLEDCDQIHVDDVSSDDNGQDLSTYNFSTDGFHSTAPGASLCLGTGVHGGVDWMRKLAFRYRRVKEMYNTYRNNVGGLIGAPKRETWLQLRAELEALTDLWLTHSLKALNLINSRPNCVNVLVTTTQLIPALAKVLLYGLGSVFPIENIYSATKTGKESCFERIMQRFGRKAVYIVIGDGVEEEQGAKKHNMPFWRISCHADLEALRHALELEYL
On to B1, for which the binding result in experiment [2] is on record as “binds”.

B2: HA-tagged EYA1 (protein, UniProt P97767 1-591)
chain: MEMQDLTSPHSRLSGSSESPSGPKLDSSHINSTSMTPNGTEVKTEPMSSSEIASTAADGSLDSFSGSALGSSSFSPRPAHPFSPPQIYPSKSYPHILPTPSSQTMAAYGQTQFTTGMQQATAYATYPQPGQPYGISSYGALWAGIKTESGLSQSQSPGQTGFLSYGTSFGTPQPGQAPYSYQMQGSSFTTSSGLYSGNNSLTNSSGFNSSQQDYPSYPGFGQGQYAQYYNSSPYPAHYMTSSNTSPTTPSTNATYQLQEPPSGVTSQAVTDPTAEYSTIHSPSTPIKETDSERLRRGSDGKSRGRGRRNNNPSPPPDSDLERVFIWDLDETIIVFHSLLTGSYANRYGRDPPTSVSLGLRMEEMIFNLADTHLFFNDLEECDQVHIDDVSSDDNGQDLSTYNFGTDGFPAAATSANLCLATGVRGGVDWMRKLAFRYRRVKEIYNTYKNNVGGLLGPAKREAWLQLRAEIEALTDSWLTLALKALSLIHSRTNCVNILVTTTQLIPALAKVLLYGLGIVFPIENIYSATKIGKESCFERIIQRFGRKVVYVVIGDGVEEEQGAKKHAMPFWRVSSHSDLMALHHALELEYL
Turning to B2, in experiment [2], the binding result is on record as “binds”.

B3: Flag-tagged SIX1 (protein, UniProt Q62231 1-284)
chain: MSMLPSFGFTQEQVACVCEVLQQGGNLERLGRFLWSLPACDHLHKNESVLKAKAVVAFHRGNFRELYKILESHQFSPHNHPKLQQLWLKAHYVEAEKLRGRPLGAVGKYRVRRKFPLPRTIWDGEETSYCFKEKSRGVLREWYAHNPYPSPREKRELAEATGLTTTQVSNWFKNRRQRDRAAEAKERENTENNNSSSNKQNQLSPLEGGKPLMSSSEEEFSPPQSPDQNSVLLLQSNMGHARSSNYSLPGLTASQPSHGLQAHQHQLQDSLLGPLTSSLVDLGS
Turning to B3, the binding result in experiment [2] and in experiment [3] was “binds” throughout.

B4: Myc-tagged SOBP (protein, UniProt Q0P5V2 1-864)
chain: MAEMEKEGRPPENKRSRKPAHPVKREINEEMKNFAENTMNELLGWYGYDKVELKDGEDIEFRSYTTDGESRQHISVLKENSLPKPKLPEDSVISSYNISTGYSGLATGNGLSDSPAGSKDHGNVPIIVPLIPPPFIKPPAEDDVSNVQIMCAWCQKVGIKRYSLSMGSEVKSFCSEKCFAACRRAYFKRNKARDEDGRAETFPQQHYAKETPRLAFKNNCELLVCDWCKHIRHTKEYLDFGDGERRLQFCSAKCLNQYKMDIFYKETQANLPAGLCSTLHPHMESKAEGTGVQLLTPDSWNIPLTDARRKAPSPVTAAGQSQGPGPSSSTTVSPSDTANCSVTKIPTPVPKSLPISETPSIPPVSVQPPASIGPPLGVPPRSPPMVMTNRGPVPLPIFMEQQIIQQIRPPFIRGPPHHASNPNSPLSNPMLPGIGAPPGGPRNLGPTSSPMHRPMLSPHIHPPSTPTMPGNPPGLLPPPPPGAPLPSLPFPPVSMMPNGPMPVPQMMNFGLPSLAPLVPPPTLLVPYPVIVPLPVPIPIPIPIPHVNDSKPPNGFSSNGESFVPSAPGDSSAAGGKAGGRSLSPRDSKQGSSKSADSPPGSSGQALSLAPAERGRGEVVDLTRRAGSPAGAGGQPGFAGVLHGPQDGVIDLTVGHRARLHNVIHRALHAHVKAEREPGAAERRTCGGCRDGHCSPPAAGDPGPGAPAGPEAAAACNVIVNGTRSAPAEAKGAEPPPEQPPPPAPPKKLLSSEEPVVNELESVKENNCASNCHLDGEATKKLMGEEALAGGDKSDPNLNNPADEDHAYALRMLPKTGCVIQPVPKPAEKAAMTPCVISSPMLSAGPEDLEPPLKRRCLRIRNQNK
B4: the binding entry in experiment [4], in experiment [5] and in experiment [6] was “binds” each time.
